From article doi:10.1101/2021.05.06.441257
These are yes or no findings as the source states them, for the method shown. In cells and extracts the contact can be indirect. These calls come from enrichment with a bait or labelling near it, and not all partners need be listed. Where a sequence is shown, tags or fusion partners need not be part of it.

Amino acid sequences for entries named in this document (tags omitted).
UniProt P38873: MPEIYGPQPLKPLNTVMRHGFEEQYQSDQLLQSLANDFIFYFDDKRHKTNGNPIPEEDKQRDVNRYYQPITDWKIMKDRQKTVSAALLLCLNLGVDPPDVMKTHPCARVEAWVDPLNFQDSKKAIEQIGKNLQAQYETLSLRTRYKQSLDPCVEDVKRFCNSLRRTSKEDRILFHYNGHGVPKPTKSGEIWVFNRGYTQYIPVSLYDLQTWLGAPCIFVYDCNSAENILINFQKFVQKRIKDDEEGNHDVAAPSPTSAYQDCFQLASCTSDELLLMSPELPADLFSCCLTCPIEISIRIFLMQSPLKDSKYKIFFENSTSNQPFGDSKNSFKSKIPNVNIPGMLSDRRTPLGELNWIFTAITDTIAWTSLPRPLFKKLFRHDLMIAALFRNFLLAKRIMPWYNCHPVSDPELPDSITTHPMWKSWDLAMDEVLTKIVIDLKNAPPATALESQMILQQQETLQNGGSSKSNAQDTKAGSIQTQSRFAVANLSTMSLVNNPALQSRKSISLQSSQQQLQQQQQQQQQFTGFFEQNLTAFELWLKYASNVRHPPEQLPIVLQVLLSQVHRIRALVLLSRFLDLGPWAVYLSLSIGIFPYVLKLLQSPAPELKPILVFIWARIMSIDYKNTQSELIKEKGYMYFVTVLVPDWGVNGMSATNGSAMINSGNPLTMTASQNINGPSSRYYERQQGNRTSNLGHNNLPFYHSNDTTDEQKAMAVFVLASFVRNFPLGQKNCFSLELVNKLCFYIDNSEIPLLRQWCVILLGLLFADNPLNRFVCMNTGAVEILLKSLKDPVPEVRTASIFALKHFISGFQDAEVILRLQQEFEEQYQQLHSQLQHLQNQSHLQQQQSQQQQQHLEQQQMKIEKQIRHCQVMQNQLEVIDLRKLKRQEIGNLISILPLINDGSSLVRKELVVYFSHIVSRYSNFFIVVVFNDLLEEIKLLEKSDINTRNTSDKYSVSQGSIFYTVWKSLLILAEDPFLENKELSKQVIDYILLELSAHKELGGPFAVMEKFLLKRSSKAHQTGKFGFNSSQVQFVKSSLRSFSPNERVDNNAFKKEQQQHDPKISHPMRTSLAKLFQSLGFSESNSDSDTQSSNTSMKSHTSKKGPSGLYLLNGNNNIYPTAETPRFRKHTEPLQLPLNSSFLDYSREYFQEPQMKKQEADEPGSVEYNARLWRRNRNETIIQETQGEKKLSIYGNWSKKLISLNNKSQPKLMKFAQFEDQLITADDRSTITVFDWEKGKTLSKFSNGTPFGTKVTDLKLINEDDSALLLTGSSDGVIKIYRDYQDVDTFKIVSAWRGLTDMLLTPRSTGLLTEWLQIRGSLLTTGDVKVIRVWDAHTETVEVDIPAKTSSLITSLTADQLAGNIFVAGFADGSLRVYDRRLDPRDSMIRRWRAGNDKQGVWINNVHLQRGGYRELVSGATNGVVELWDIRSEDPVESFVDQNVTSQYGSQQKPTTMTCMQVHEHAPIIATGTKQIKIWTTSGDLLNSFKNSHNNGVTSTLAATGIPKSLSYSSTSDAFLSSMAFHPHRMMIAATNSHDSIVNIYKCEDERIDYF
UniProt P47170: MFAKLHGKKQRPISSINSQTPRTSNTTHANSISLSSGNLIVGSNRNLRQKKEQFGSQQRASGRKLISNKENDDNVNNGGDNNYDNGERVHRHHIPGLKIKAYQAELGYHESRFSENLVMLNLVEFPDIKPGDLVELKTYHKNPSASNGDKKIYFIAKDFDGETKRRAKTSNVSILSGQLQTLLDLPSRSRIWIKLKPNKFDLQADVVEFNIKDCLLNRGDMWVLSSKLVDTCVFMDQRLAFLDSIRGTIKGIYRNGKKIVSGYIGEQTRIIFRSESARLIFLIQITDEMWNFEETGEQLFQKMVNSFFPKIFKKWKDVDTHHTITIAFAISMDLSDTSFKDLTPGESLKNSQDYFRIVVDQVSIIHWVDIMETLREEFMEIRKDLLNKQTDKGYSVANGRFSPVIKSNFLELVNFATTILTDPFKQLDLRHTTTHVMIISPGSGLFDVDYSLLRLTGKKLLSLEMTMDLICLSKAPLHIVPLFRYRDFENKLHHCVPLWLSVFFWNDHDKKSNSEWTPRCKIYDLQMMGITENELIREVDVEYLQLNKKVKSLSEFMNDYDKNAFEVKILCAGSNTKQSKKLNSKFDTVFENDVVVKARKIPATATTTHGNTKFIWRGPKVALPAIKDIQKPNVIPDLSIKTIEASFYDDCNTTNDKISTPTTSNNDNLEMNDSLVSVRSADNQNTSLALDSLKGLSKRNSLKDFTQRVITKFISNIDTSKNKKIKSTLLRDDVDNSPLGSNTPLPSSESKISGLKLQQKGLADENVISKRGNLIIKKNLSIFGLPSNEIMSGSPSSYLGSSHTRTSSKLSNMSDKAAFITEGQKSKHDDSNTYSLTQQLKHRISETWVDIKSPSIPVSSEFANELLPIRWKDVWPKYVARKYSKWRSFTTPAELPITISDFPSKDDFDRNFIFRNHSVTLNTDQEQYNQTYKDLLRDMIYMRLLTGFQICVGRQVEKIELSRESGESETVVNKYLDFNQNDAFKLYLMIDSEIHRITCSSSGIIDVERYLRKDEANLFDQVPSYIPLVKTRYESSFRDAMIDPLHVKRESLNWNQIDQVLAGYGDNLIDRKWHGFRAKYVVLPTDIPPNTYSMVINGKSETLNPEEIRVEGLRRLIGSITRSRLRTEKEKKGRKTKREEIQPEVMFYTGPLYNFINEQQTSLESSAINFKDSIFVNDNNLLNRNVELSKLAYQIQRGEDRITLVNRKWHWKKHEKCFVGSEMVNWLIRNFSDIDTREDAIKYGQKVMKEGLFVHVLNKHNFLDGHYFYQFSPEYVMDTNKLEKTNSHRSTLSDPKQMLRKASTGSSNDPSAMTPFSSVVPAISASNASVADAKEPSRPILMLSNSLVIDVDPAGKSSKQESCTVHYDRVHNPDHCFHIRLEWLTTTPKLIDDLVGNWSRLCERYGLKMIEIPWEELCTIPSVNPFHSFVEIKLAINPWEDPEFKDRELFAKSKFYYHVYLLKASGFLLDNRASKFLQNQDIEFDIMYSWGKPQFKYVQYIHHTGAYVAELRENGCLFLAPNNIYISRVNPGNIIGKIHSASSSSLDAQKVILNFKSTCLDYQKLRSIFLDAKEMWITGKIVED

B1: Seh1 (protein, UniProt P53011 1-349)
chain: MQPFDSGHDDLVHDVVYDFYGRHVATCSSDQHIKVFKLDKDTSNWELSDSWRAHDSSIVAIDWASPEYGRIIASASYDKTVKLWEEDPDQEECSGRRWNKLCTLNDSKGSLYSVKFAPAHLGLKLACLGNDGILRLYDALEPSDLRSWTLTSEMKVLSIPPANHLQSDFCLSWCPSRFSPEKLAVSALEQAIIYQRGKDGKLHVAAKLPGHKSLIRSISWAPSIGRWYQLIATGCKDGRIRIFKITEKLSPLASEESLTNSNMFDNSADVDMDAQGRSDSNTEEKAELQSNLQVELLSEHDDHNGEVWSVSWNLTGTILSSAGDDGKVRLWKATYSNEFKCMSVITAQQ

molecular target: T1, GFP-Vps501 (S. cerevisiae) (UniProt P36158); assay: affinity purification with mass spectrometry
T1 sequence: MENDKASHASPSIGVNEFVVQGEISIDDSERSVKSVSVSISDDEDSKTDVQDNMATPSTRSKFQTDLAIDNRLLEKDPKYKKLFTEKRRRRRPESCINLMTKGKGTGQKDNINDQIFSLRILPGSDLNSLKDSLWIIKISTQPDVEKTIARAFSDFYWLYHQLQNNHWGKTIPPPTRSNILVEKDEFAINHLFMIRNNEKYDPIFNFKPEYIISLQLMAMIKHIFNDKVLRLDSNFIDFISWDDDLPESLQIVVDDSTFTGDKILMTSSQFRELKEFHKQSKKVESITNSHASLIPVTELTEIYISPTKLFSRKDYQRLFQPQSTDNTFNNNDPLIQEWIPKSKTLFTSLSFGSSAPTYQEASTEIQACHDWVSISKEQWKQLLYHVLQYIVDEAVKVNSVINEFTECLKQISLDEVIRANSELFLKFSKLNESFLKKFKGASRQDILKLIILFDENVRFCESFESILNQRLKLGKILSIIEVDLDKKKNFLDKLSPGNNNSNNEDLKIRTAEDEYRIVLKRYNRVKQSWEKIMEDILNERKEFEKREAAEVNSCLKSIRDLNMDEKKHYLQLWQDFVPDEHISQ

Q: Which binding does the source give for Kog1 (from UniProt P38873 1-1557) here?
A: binds

Q: With Sea1 (from UniProt P47170 1-1584) as the molecule, how does the binding read?
A: binds

Q: How did the binding turn out when B1 was run?
A: binds
